In article doi:10.1101/2025.03.30.646247:
These are yes or no findings as the source states them, for the method shown. For some of these results: In cells and extracts the contact can be indirect. Some results given as binding are weak or reduced against the parent protein; the word gives no strength. For some of these results: Tags and fused reporters may be left off the sequences shown.

The chains behind the UniProt entries cited, without tags or fusion partners. Where a name states a change or a piece, a line headed by the entry shows the natural chain unless it says otherwise. A line that says so, or that is headed by a name, gives the form on record, which may keep a tag or linker.
UniProt Q8W1D5: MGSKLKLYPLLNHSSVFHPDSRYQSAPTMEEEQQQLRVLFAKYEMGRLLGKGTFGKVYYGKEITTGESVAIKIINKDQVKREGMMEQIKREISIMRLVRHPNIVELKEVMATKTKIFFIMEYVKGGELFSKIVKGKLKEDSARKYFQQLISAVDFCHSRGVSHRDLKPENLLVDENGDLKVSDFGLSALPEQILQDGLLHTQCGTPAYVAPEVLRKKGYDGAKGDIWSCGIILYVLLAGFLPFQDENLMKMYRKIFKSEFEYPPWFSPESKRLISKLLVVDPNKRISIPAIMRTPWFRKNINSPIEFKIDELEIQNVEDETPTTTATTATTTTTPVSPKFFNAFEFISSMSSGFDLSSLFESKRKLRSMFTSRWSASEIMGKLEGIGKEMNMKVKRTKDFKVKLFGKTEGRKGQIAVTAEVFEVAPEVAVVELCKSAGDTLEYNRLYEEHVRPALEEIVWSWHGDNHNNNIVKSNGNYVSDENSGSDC
UniProt Q9FIJ0: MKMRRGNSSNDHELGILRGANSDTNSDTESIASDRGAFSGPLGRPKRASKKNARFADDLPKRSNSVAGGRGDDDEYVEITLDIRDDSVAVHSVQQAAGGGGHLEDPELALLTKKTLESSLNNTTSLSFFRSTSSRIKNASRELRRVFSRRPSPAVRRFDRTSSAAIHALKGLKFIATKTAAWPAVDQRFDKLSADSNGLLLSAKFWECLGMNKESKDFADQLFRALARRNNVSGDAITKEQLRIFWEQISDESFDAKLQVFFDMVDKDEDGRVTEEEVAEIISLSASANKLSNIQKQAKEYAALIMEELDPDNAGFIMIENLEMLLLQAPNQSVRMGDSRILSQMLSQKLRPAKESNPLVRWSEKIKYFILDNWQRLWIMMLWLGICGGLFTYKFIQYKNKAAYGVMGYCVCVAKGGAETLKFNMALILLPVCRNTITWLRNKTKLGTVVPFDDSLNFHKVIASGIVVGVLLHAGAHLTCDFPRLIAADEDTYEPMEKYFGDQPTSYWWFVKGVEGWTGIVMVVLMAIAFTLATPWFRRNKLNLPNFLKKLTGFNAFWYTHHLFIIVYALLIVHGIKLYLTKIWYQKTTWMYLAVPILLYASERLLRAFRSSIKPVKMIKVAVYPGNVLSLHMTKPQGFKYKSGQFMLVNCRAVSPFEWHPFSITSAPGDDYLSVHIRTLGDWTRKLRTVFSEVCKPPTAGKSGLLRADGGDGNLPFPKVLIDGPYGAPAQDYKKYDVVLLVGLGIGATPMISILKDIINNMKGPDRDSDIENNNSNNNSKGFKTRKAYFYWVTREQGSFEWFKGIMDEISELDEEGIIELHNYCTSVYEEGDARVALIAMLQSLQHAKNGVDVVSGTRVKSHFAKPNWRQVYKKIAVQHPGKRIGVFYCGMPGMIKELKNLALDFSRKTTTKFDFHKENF
UniProt O81223: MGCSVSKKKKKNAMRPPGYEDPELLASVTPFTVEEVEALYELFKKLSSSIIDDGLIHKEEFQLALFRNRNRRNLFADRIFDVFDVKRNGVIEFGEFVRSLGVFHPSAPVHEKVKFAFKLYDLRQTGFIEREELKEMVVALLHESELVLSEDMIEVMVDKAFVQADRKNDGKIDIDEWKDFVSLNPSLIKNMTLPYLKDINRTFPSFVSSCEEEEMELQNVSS
UniProt Q9LTB8: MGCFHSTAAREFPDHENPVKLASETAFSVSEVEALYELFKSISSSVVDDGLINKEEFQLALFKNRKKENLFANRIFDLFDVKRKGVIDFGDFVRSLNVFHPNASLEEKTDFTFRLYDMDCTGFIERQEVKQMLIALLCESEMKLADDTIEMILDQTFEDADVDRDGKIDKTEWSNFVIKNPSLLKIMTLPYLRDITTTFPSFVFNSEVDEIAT
CBL9 G^2/A-YFP^C (Q9LTB8, form named): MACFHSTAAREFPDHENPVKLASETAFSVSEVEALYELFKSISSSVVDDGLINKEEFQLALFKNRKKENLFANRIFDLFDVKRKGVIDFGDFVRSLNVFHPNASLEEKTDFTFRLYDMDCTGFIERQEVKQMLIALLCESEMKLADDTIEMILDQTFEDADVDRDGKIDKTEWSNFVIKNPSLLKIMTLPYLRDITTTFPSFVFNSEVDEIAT
UniProt O81445: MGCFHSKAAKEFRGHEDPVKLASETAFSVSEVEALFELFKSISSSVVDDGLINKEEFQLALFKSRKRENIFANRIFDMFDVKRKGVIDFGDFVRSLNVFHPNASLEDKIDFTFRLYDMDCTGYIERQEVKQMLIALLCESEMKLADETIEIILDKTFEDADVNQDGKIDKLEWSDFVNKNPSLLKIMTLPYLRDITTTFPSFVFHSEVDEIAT
CBL1 G^2/A-YFP^C (O81445, form named): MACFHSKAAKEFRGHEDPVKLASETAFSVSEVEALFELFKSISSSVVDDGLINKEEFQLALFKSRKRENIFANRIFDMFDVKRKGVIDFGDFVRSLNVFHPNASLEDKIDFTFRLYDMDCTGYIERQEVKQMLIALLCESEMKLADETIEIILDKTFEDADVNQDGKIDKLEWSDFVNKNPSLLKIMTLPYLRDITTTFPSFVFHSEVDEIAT
UniProt Q7FRS8: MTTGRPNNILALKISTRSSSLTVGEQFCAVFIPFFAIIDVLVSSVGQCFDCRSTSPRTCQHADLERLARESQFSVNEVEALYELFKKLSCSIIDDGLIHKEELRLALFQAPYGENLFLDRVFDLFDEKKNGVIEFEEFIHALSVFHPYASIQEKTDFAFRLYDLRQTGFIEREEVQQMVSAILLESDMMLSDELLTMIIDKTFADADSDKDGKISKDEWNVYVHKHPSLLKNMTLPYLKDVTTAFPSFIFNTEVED

Experiments:
[1] = biological target: CBL-interacting protein kinase 6 (CIPK6) fused to the GAL4 DNA-binding domain (Arabidopsis thaliana) (UniProt O65554); test: two-hybrid
CIPK25-YFP = CIPK25-YFP (UniProt Q8W1D5); test: co-IP
[2] = biological target: T1, CIPK6-YFP (Arabidopsis thaliana) (UniProt O65554); test: co-IP
T1 sequence: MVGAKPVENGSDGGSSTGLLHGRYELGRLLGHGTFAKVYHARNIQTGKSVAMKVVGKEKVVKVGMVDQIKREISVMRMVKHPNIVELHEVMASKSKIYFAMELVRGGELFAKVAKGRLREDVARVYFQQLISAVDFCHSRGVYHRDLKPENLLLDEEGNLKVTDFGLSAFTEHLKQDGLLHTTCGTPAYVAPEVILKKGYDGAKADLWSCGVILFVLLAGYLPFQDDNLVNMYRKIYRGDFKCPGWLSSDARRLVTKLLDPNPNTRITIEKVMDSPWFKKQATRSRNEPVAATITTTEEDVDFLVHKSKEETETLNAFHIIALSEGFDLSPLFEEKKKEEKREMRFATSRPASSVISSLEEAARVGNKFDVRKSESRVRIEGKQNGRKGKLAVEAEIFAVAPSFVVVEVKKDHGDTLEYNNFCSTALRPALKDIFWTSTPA

[3] = biological target: RbohD-YFP (Arabidopsis thaliana) (UniProt Q9FIJ0); test: co-IP
[4] = biological target: CIPK6-YFP^N (Arabidopsis thaliana) (UniProt O65554); test: split reporter
[5] = biological target: RbohD-YFP^N (Arabidopsis thaliana) (UniProt Q9FIJ0); test: split reporter
[6] = biological target: RbohD-YFP^C (Arabidopsis thaliana) (UniProt Q9FIJ0); test: split reporter

**Q.** “CBL4 fused to the GAL4 activation domain (from UniProt O81223 1-222)” was tested. Which binding [1] did it give?
**A.** binds

**Q.** Which binding (CIPK25-YFP) does the source give for “10xcMyc-CBL9 (from UniProt Q9LTB8 1-213)” here?
**A.** no binding

**Q.** And the binding [2]?
**A.** binds

**Q.** How did the binding [3] turn out when “10xcMyc-CIPK25 (from UniProt Q8W1D5 1-488) (enzyme)” was run?
**A.** no binding

**Q.** With 3xFlag-CBL1 (from UniProt O81445 1-213) as the substance, how does the binding [3] read?
**A.** binds

**Q.** How did the binding [3] turn out when “3xFlag-CBL10 (from UniProt Q7FRS8 1-256)” was run?
**A.** no binding

**Q.** Which results are given for CBL1-YFP^C (from UniProt O81445 1-213)?
**A.** binding [4]: binds; binding [5]: binds

**Q.** With “CBL1 G^2/A-YFP^C (from UniProt O81445 1-213)” as the substance, how does the binding [4] read?
**A.** binds

**Q.** How did the binding [6] turn out when “CIPK6 K^53/A-YFP^N (from UniProt O65554 1-441) (enzyme)” was run?
**A.** binds

**Q.** Which binding [1] does the source give for “CBL9 fused to the GAL4 activation domain (from UniProt Q9LTB8 1-213)” here?
**A.** binds

**Q.** Which results are given for “10xcMyc-CBL1 (from UniProt O81445 1-213)”?
**A.** binding (CIPK25-YFP): no binding; binding [2]: binds

**Q.** For “CBL2 fused to the GAL4 activation domain (from UniProt Q8LAS7 1-226)”, which binding [1] is on record?
**A.** binds

**Q.** CBL9-YFP^C (from UniProt Q9LTB8 1-213) was tested. Which binding [4] did it give?
**A.** binds

**Q.** What about the binding [5] of the same substance?
**A.** binds

**Q.** How did the binding [1] turn out when “CBL3 fused to the GAL4 activation domain (from UniProt Q8LEM7 1-226)” was run?
**A.** binds

**Q.** With “Calcineurin B like protein 1 (CBL1) fused to the GAL4 activation domain (from UniProt O81445 1-213)” as the substance, how does the binding [1] read?
**A.** binds

**Q.** “CBL9 G^2/A-YFP^C (from UniProt Q9LTB8 1-213)” was tested. Which binding [4] did it give?
**A.** binds
